Laboratory results published in paper doi:10.1101/2021.09.17.460803.
No constants are given. Whether binding was seen depends on the method and setting. In cells and extracts the contact can be indirect. Some entries that bind do so weakly or less than the wild type. Where a sequence is shown, tags or fusion partners need not be part of it.

Target: T1, FLAG-tagged CASP (human) (UniProt Q13948)
T1 sequence: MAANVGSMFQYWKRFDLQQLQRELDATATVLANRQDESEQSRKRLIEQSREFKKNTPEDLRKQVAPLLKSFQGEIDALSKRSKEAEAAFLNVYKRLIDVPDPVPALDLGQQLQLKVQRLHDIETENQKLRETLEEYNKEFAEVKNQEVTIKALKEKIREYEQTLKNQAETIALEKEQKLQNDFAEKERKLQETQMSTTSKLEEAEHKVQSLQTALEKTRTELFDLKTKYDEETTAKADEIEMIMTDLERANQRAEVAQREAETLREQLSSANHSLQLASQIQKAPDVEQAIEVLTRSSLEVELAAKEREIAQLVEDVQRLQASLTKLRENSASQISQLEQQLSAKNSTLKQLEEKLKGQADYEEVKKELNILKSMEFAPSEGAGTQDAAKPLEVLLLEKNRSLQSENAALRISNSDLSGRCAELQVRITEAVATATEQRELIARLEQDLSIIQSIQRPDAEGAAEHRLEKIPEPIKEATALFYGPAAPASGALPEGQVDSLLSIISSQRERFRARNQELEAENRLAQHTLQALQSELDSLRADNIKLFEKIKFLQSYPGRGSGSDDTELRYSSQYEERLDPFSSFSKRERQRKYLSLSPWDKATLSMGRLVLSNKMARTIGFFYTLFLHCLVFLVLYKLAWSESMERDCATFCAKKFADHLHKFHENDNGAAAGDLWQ
Assay: co-IP

B1: mRFP-tagged CUX2 (protein, UniProt O14529 1-1486)
chain: MAANVGSMFQYWKRFDLRRLQKELNSVASELSARQEESEHSHKHLIELRREFKKNVPEEIREMVAPVLKSFQAEVVALSKRSQEAEAAFLSVYKQLIEAPDPVPVFEAARSLDDRLQPPSFDPSGQPRRDLHTSWKRNPELLSPKEQREGTSPAGPTLTEGSRLPGIPGKALLTETLLQRNEAEKQKGLQEVQITLAARLGEAEEKIKVLHSALKATQAELLELRRKYDEEAASKADEVGLIMTNLEKANQRAEAAQREVESLREQLASVNSSIRLACCSPQGPSGDKVNFTLCSGPRLEAALASKDREILRLLKDVQHLQSSLQELEEASANQIADLERQLTAKSEAIEKLEEKLQAQSDYEEIKTELSILKAMKLASSTCSLPQGMAKPEDSLLIAKEAFFPTQKFLLEKPSLLASPEEDPSEDDSIKDSLGTEQSYPSPQQLPPPPGPEDPLSPSPGQPLLGPSLGPDGTRTFSLSPFPSLASGERLMMPPAAFKGEAGGLLVFPPAFYGAKPPTAPATPAPGPEPLGGPEPADGGGGGAAGPGAEEEQLDTAEIAFQVKEQLLKHNIGQRVFGHYVLGLSQGSVSEILARPKPWRKLTVKGKEPFIKMKQFLSDEQNVLALRTIQVRQRGSITPRIRTPETGSDDAIKSILEQAKKEIESQKGGEPKTSVAPLSIANGTTPASTSEDAIKSILEQARREMQAQQQALLEMEVAPRGRSVPPSPPERPSLATASQNGAPALVKQEEGSGGPAQAPLPVLSPAAFVQSIIRKVKSEIGDAGYFDHHWASDRGLLSRPYASVSPSLSSSSSSGYSGQPNGRAWPRGDEAPVPPEDEAAAGAEDEPPRTGELKAEGATAEAGARLPYYPAYVPRTLKPTVPPLTPEQYELYMYREVDTLELTRQVKEKLAKNGICQRIFGEKVLGLSQGSVSDMLSRPKPWSKLTQKGREPFIRMQLWLSDQLGQAVGQQPGASQASPTEPRSSPSPPPSPTEPEKSSQEPLSLSLESSKENQQPEGRSSSSLSGKMYSGSQAPGGIQEIVAMSPELDTYSITKRVKEVLTDNNLGQRLFGESILGLTQGSVSDLLSRPKPWHKLSLKGREPFVRMQLWLNDPHNVEKLRDMKKLEKKAYLKRRYGLISTGSDSESPATRSECPSPCLQPQDLSLLQIKKPRVVLAPEEKEALRKAYQLEPYPSQQTIELLSFQLNLKTNTVINWFHNYRSRMRREMLVEGTQDEPDLDPSGGPGILPPGHSHPDPTPQSPDSETEDQKPTVKELELQEGPEENSTPLTTQDKAQVRIKQEQMEEDAEEEAGSQPQDSGELDKGQGPPKEEHPDPPGNDGLPKVAPGPLLPGGSTPDCPSLHPQQESEAGERLHPDPLSFKSASESSRCSLEVSLNSPSAASSPGLMMSVSPVPSSSAPISPSPPGAPPAKVPSASPTADMAGALHPSAKVNPNLQRRHEKMANLNNIIYRVERAANREEALEWEF
In the case of B1, the binding is reported as “binds”.
